Assay results taken from doi:10.1101/525576.

By UniProt entry, the sequences of proteins in these tests, tags left out. Where a name states a change or a piece, a line headed by the entry shows the natural chain unless it says otherwise.
UniProt Q03181: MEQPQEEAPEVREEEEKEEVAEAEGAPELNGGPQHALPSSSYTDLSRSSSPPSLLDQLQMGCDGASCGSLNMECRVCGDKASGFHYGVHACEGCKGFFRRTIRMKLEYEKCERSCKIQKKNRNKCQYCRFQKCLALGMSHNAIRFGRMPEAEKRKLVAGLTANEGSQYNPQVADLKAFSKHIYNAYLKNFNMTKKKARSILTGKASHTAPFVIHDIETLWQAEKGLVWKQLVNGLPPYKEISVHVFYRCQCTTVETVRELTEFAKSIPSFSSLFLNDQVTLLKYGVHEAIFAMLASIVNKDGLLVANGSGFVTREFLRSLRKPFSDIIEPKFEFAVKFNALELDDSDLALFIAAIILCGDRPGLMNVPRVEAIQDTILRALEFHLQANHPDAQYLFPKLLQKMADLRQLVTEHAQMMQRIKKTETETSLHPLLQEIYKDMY
UniProt O75376: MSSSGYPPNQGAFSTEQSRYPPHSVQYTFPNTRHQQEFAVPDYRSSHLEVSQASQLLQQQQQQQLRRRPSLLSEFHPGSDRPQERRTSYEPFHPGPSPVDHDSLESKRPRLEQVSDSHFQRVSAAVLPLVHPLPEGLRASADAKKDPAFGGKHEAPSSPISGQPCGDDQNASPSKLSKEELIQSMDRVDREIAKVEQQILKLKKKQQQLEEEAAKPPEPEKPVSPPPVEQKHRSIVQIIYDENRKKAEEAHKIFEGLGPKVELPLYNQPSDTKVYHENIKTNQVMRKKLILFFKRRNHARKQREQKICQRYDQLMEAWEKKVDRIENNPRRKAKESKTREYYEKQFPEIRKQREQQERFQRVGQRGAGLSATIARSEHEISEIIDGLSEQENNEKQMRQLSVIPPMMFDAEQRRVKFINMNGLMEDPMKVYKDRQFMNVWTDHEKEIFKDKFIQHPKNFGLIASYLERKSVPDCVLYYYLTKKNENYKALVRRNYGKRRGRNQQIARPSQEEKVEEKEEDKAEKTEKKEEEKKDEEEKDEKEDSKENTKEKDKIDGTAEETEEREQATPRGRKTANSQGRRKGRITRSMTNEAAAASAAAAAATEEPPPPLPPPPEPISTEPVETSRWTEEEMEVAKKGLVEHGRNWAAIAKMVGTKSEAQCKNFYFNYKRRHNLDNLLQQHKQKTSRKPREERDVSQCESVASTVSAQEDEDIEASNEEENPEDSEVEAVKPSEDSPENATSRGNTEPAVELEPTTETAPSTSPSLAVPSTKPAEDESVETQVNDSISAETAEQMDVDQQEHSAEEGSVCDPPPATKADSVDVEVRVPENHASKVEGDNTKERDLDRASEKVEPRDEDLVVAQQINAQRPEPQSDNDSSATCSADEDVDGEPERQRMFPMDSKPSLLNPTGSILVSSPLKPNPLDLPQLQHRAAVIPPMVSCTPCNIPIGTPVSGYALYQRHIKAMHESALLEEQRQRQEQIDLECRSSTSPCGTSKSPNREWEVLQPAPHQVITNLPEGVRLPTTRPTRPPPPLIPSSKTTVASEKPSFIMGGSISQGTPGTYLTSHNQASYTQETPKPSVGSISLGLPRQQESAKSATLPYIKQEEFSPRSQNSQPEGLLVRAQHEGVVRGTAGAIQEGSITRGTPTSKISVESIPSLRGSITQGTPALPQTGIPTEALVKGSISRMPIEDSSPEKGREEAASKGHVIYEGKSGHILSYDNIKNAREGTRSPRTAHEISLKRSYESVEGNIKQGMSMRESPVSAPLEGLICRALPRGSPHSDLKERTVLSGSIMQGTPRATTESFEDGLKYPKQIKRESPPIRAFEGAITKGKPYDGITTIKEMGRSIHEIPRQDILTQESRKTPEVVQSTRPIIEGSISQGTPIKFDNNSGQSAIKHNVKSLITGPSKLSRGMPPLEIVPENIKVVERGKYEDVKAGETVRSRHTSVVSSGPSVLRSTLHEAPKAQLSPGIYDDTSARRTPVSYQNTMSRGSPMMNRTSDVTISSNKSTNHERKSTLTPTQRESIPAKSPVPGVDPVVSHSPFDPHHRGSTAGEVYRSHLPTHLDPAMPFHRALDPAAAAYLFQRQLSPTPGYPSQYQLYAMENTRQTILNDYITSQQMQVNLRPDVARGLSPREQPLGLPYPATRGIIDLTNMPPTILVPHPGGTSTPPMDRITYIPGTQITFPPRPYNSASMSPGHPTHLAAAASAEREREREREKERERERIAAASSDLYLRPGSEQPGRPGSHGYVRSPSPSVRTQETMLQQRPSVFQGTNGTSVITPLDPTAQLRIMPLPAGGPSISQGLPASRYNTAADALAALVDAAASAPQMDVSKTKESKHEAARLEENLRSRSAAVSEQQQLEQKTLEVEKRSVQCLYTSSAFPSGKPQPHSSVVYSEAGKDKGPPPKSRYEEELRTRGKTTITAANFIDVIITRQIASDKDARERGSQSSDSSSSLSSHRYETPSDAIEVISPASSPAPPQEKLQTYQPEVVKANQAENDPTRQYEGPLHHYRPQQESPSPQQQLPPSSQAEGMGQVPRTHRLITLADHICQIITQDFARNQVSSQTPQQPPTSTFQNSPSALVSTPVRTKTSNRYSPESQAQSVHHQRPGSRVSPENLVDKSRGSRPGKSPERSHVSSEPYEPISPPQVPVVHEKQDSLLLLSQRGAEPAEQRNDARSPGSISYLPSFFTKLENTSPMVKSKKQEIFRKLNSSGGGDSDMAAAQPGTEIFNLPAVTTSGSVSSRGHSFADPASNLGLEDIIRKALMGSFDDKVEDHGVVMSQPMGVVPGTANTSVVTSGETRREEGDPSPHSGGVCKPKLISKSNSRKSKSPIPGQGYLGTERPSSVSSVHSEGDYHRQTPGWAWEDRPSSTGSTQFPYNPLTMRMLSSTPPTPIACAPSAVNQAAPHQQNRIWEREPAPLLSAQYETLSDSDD

Molecular target: PPARβ/δ (peroxisome proliferator activated receptor β/δ) (human (endogenous in MDA-MB231-luc2)) (UniProt Q03181)
Test: affinity purification with mass spectrometry

NCOR (nuclear receptor corepressor) (from UniProt O75376 1-2440)
binding: binds

These are yes or no findings as the source states them, for the method shown. In cells and extracts the contact can be indirect. Here binding means that the protein was enriched with, or labelled near, the bait; the list need not be complete.
